Test results from paper PMC9699406.

Amino acid sequences for entries named in this document (tags omitted). A change or cut given only in a name is not applied to a line headed by its entry.
UniProt B0XTB8: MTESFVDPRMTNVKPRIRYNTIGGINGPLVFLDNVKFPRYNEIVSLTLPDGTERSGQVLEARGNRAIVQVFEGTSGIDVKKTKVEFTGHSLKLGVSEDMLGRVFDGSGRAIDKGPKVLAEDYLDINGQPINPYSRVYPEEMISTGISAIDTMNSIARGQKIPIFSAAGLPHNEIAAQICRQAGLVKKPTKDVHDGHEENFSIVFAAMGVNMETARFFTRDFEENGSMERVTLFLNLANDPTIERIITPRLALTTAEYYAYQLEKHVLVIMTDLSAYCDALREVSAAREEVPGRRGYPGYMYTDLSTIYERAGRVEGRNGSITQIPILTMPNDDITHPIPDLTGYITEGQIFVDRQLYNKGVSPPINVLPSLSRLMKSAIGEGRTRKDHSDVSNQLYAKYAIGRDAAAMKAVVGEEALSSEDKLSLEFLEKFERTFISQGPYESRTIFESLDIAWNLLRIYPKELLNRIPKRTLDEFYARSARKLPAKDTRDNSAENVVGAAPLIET
UniProt B0YEE5: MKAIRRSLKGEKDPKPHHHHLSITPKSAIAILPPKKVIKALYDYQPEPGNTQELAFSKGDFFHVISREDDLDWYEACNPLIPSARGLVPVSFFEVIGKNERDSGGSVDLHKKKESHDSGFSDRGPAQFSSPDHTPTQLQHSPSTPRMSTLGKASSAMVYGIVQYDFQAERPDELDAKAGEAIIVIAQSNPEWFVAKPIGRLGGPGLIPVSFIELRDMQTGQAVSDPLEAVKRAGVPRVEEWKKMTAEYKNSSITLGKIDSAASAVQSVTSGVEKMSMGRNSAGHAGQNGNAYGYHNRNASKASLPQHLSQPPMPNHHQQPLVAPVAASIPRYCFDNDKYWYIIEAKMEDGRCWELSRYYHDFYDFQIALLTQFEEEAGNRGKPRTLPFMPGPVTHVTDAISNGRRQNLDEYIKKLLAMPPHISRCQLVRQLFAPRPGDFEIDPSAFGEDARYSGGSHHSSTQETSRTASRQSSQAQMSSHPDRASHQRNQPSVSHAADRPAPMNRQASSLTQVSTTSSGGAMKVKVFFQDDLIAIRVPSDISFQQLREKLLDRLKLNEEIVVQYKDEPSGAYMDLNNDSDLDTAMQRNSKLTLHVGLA
UniProt B0XYM2: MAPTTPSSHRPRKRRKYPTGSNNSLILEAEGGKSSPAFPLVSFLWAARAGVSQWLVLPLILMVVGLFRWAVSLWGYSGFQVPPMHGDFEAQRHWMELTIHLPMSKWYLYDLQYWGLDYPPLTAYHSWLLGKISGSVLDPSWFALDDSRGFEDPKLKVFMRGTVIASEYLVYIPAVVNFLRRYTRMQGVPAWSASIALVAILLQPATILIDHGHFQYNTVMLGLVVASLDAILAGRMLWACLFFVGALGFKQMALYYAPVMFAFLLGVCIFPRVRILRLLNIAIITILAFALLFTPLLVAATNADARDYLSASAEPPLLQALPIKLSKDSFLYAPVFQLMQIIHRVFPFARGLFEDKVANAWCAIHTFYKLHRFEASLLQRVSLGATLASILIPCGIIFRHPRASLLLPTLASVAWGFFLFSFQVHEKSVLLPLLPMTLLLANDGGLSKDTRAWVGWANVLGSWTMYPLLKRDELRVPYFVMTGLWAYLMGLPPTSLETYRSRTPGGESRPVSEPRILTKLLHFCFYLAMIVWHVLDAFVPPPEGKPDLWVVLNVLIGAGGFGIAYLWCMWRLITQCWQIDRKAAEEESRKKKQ
UniProt B0XNS3: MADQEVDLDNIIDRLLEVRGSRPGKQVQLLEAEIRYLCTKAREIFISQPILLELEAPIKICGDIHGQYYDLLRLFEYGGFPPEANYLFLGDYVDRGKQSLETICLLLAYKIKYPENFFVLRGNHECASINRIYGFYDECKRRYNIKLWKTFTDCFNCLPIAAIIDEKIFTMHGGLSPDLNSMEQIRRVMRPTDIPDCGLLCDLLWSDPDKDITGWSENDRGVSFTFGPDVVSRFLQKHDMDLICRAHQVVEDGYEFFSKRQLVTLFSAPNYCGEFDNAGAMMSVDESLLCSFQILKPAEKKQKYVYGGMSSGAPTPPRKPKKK
UniProt B0XPR4: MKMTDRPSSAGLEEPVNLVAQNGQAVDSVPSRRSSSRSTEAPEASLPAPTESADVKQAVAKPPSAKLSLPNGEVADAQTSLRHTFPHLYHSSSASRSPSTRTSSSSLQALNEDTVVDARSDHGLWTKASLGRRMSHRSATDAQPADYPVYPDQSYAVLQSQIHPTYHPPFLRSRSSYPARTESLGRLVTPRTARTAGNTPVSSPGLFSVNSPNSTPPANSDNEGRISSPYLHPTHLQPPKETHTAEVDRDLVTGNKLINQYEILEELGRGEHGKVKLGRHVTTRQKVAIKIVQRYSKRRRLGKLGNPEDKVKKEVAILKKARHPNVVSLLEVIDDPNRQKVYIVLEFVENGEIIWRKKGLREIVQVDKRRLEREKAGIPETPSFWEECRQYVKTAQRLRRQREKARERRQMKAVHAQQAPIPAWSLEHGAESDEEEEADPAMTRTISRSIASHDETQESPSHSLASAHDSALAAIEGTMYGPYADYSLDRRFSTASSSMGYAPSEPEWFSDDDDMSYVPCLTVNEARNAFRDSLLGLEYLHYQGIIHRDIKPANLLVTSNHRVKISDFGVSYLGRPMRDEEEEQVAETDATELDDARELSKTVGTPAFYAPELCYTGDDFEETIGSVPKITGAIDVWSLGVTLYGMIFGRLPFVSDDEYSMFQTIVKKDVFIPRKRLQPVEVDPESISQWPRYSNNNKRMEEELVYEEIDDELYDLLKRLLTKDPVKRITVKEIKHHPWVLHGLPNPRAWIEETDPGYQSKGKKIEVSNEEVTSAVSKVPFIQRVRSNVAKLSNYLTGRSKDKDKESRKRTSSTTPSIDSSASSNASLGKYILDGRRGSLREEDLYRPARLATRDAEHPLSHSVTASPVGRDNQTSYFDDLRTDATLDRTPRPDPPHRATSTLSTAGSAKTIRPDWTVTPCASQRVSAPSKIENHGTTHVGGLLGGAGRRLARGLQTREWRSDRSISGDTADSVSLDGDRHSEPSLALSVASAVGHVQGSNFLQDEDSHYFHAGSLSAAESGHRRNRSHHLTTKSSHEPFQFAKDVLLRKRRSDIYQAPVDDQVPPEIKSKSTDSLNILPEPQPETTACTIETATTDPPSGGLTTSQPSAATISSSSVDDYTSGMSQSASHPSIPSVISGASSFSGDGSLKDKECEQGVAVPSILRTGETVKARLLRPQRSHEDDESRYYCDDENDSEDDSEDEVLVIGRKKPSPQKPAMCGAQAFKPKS
UniProt B0YDN9: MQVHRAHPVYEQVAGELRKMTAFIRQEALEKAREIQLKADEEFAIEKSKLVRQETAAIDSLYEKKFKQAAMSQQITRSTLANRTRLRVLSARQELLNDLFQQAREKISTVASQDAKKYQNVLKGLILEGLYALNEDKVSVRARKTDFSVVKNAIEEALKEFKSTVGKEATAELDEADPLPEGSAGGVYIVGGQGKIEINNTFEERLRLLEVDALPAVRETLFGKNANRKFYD
UniProt B0XQI7: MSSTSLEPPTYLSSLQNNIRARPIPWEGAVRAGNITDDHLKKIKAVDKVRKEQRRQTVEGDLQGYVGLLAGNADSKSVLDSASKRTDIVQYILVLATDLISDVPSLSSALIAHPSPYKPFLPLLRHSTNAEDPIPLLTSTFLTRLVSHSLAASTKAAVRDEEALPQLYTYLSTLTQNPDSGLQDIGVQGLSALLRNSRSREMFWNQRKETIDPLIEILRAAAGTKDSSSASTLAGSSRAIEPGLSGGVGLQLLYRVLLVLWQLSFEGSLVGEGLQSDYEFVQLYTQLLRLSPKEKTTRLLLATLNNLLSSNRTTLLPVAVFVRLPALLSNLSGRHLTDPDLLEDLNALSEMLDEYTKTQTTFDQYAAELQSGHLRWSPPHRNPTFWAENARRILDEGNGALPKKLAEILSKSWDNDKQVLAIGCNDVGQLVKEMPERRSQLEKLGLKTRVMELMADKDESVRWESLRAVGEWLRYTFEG
UniProt B0XTE0: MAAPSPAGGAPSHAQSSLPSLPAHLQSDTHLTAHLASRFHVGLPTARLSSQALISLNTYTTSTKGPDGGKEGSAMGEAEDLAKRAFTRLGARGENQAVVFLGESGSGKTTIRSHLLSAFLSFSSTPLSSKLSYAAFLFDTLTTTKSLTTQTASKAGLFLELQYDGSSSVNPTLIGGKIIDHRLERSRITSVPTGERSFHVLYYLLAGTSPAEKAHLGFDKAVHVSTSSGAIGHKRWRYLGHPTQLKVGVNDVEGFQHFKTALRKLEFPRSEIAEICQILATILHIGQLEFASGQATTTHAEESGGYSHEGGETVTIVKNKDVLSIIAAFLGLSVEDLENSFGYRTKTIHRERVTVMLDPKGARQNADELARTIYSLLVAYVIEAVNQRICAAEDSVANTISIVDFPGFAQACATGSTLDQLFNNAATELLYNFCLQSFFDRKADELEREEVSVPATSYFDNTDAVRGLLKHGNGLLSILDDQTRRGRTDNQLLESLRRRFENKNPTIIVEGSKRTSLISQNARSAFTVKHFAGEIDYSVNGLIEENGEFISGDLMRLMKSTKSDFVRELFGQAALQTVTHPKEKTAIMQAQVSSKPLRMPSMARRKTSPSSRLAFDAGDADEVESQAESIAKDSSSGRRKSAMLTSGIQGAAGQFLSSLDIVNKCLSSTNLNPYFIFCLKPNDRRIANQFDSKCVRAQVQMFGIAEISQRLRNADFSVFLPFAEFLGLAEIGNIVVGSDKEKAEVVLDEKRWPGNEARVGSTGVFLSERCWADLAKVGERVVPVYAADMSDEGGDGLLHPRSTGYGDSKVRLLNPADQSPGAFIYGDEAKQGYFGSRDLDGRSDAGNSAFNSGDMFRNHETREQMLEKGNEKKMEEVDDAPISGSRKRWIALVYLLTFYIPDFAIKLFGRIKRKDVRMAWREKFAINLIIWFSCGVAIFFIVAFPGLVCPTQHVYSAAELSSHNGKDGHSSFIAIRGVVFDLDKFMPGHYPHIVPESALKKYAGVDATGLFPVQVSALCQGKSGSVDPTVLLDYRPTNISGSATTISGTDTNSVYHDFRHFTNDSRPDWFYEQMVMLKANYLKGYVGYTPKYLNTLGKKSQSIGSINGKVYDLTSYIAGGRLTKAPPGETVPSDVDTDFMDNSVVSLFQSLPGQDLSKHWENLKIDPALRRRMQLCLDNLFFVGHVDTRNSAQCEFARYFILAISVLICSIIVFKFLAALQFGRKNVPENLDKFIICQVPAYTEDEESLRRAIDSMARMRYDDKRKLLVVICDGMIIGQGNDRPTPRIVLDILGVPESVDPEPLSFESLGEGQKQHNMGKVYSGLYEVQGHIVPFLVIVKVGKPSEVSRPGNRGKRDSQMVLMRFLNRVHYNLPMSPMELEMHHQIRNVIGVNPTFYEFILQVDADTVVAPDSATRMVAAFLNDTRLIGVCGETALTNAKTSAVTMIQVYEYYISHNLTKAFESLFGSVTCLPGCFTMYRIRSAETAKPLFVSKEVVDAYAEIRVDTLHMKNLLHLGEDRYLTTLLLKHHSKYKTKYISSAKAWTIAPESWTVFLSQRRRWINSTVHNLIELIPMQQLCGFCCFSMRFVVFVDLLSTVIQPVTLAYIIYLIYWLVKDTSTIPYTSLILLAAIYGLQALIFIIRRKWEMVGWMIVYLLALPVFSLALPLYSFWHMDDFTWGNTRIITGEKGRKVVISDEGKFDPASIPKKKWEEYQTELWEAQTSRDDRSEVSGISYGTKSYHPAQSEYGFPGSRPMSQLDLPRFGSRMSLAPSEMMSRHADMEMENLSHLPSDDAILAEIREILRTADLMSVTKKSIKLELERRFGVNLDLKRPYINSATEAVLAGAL
UniProt B0XNZ1: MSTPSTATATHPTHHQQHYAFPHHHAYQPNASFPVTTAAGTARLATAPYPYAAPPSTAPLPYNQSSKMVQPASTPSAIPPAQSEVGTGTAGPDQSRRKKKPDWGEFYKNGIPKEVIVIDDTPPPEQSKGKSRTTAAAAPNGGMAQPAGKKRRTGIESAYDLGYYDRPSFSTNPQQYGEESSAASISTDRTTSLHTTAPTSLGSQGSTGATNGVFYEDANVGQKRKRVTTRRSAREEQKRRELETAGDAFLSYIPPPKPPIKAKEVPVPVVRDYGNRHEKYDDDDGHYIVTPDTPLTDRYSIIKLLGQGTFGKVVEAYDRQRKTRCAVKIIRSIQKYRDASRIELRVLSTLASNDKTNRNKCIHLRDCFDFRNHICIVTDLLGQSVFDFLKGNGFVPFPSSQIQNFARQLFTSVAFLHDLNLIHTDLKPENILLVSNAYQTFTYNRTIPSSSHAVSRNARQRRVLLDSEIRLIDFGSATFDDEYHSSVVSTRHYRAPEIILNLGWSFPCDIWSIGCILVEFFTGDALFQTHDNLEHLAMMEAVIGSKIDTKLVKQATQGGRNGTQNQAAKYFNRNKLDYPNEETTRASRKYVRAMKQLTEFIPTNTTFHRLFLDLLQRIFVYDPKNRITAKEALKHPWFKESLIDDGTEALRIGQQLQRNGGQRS

Target: VmaC-GFP (A. fumigatus V-ATPase subunit C with a C-terminal GFP tag) (A. fumigatus) (UniProt B0XQK0)
Test: affinity purification with mass spectrometry; GFP antibody (Roche 11814460001) used to pull down VmaC-interacting proteins from the VmaC::GFP strain; nonlabelled strain as negative control; trypsin digest, TMT labelling, HPLC fractionation, LC-MS/MS, MaxQuant

With “Vacuolar ATP synthase subunit B (from UniProt B0XTB8)” as the substance, how does the binding read?
The binding was “binds”.

With “Protein kinase activator Bem1 (from UniProt B0YEE5)” as the substance, how does the binding read?
Its binding is “binds”.

Which binding does the source give for “Alpha-1,3-glucosyltransferase (AFUB_041400) (from UniProt B0XYM2)” here?
Its binding is “binds”.

With “Vacuolar ATP synthase catalytic subunit A (from UniProt B0Y2B8)” as the substance, how does the binding read?
The binding was “binds”.

With “Alpha-1,2-mannosyltransferase (Kre5) (from UniProt B0Y1C4)” as the substance, how does the binding read?
The binding was “binds”.

“1,3-beta-glucan synthase catalytic subunit Fks1 (from UniProt B0Y8S7)” was tested. Which binding did it give?
The binding was “binds”.

How did the binding turn out when “Serine/threonine-protein phosphatase (AFUB_005320) (from UniProt B0XNS3)” was run?
The binding was “binds”.

Which binding does the source give for “Serine/threonine protein kinase (AFUB_007300) (from UniProt B0XPR4)” here?
The binding was “binds”.

“Protein kinase (AFUB_051670) (from UniProt B0Y2R3)” was tested. Which binding did it give?
The binding was “binds”.

“Vacuolar ATP synthase subunit E (from UniProt B0YDN9)” was tested. Which binding did it give?
Its binding is “binds”.

“Vacuolar ATP synthase subunit H (from UniProt B0XQI7)” was tested. Which binding did it give?
Its binding is “binds”.

With “Mannan endo-1,6-alpha-mannosidase (AFUB_048110) (from UniProt B0XXF1)” as the substance, how does the binding read?
Its binding is “binds”.

With “Chitin synthase ChsE (from UniProt B0XTE0)” as the substance, how does the binding read?
The binding was “binds”.

“Protein kinase Lkh1 (from UniProt B0XNZ1)” was tested. Which binding did it give?
Its binding is “binds”.

These are yes or no findings as the source states them, for the method shown. Binding seen in cells or lysates may run through a third protein. These calls come from enrichment with a bait or labelling near it, and not all partners need be listed.
